# Data published in the supplement of paper PMC8728848.
# Some of the results follow.
# B1: Aap brpt (Staphylococcus epidermidis) (protein)
# chain: VDGDPITSTEEIPFDKKREFDPNLAPGTEKVVQKGEPGTKTITTPTTKNPLTGEKVGEGEPTEKITKQPVDEIVHYGGEEIKTGHKDEFDPNAPKGSQTTQPGKPGVKNPDTGEVVTPPVDDVTKYGPVDGDPITSTEEIPFDKKREFDPNLAPGTEKVVQKGEPGTKTITTPTTKNPLTGEKVGEGEPTEKITKQPVDEIVHYGGEEIKPGHKDEFDPNAPKGSQEDVPGKPGVKNPDTGEVVTPPVDDVTKYGPVDGDSITSTEEIPFDKKREFDPNLAPGTEKVVQKGEPGTKTITTPTTKNPLTGEKVGEGEPTEKITKQPVDEIVHYGGEQIPQGHKDEFDPNAPVDSKTEVPGKPGVKNPDTGEVVTPPVDDVTKYGPVDGDSITSTEEIPFDKKREFDPNLAPGTEKVVQKGEPGTKTITTPTTKNPLTGEKVGEGKSTEKVTKQPVDEIVEYGPTK
# Key:
# Experiment in all cases: glycan array binding signal (z-score within array); higher = stronger binding
# Conditions in all cases: glycan notation: IUPAC condensed, linker removed
# Neu5Ac(a2-8)Neu5Ac = target: Neu5Ac(a2-8)Neu5Ac
# Summary of the method: (§1)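 Glycan array data were curated from 3228 arrays in the Consortium for Functional Glycomics database and kept only where the protein sequence was available. Glycan names were converted to IUPAC-condensed notation, and columns mapping to the same glycan were averaged. The binding signal is a within-array Z-score, averaged across arrays of the same protein sequence at different concentrations or buffers and across linkers. Negative Z-scores can be read as non-binding.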
# [1] = target: Neu5Ac(a2-8)Neu5Ac(a2-3)Gal(b1-3)GalNAc(b1-4)[Neu5Ac(a2-3)]Gal(b1-4)Glc
# Summary of the method: as §1
# [2] = target: Neu5Ac(a2-8)Neu5Ac(a2-3)Gal(b1-3)GalNAc(b1-4)[Neu5Ac(a2-8)Neu5Ac(a2-3)]Gal(b1-4)Glc
# Summary of the method: as §1
# [3] = target: Neu5Ac(a2-8)Neu5Ac(a2-3)Gal(b1-4)Glc
# Summary of the method: as §1
# [4] = target: Neu5Ac(a2-8)Neu5Ac(a2-3)Gal(b1-4)GlcNAc
# Summary of the method: as §1
# [5] = target: Neu5Ac(a2-8)Neu5Ac(a2-3)[Gal(b1-3)GalNAc(b1-4)]Gal(b1-4)Glc
# Summary of the method: as §1
# [6] = target: Neu5Ac(a2-8)Neu5Ac(a2-3)[GalNAc(b1-4)]Gal(b1-4)Glc
# Summary of the method: as §1
# [7] = target: Neu5Ac(a2-8)Neu5Ac(a2-8)Neu5Ac
# Summary of the method: as §1
# [8] = target: Neu5Ac(a2-8)Neu5Ac(a2-8)Neu5Ac(a2-3)Gal(b1-4)Glc
# Summary of the method: as §1
# [9] = target: Neu5Ac(a2-8)Neu5Ac(a2-8)Neu5Ac(a2-3)[Gal(b1-3)GalNAc(b1-4)]Gal(b1-4)Glc
# Summary of the method: as §1
# [10] = target: Neu5Ac(a2-8)Neu5Ac(a2-8)Neu5Ac(a2-3)[GalNAc(b1-4)]Gal(b1-4)Glc
# Summary of the method: as §1
# [11] = target: Neu5Ac(a2-8)Neu5Ac(a2-8)Neu5Ac(a2-8)Neu5Ac(a2-3)[GalNAc(b1-4)]Gal(b1-4)Glc
# Summary of the method: as §1
# [12] = target: Neu5Ac(a2-8)Neu5Gc(a2-3)Gal(b1-4)GlcNAc
# Summary of the method: as §1
# [13] = target: Neu5Ac(b2-6)Gal(b1-4)GlcNAc
# Summary of the method: as §1
# Neu5Ac(b2-6)GalNAc = target: Neu5Ac(b2-6)GalNAc
# Summary of the method: as §1
# [14] = target: Neu5Ac9Ac(a2-3)Gal(b1-3)GlcNAc
# Summary of the method: as §1
# [15] = target: Neu5Ac9Ac(a2-3)Gal(b1-4)GlcNAc
# Summary of the method: as §1
# [16] = target: Neu5Ac9Ac(a2-6)Gal(b1-4)GlcNAc
# Summary of the method: as §1
# [17] = target: Neu5Gc(a2-3)Gal(b1-3)GlcNAc
# Summary of the method: as §1
# [18] = target: Neu5Gc(a2-3)Gal(b1-3)[Fuc(a1-4)]GlcNAc
# Summary of the method: as §1
# Neu5Gc(a2-3)Gal(b1-4)Glc = target: Neu5Gc(a2-3)Gal(b1-4)Glc
# Summary of the method: as §1
# [19] = target: Neu5Gc(a2-3)Gal(b1-4)GlcNAc
# Summary of the method: as §1
# [20] = target: Neu5Gc(a2-3)Gal(b1-4)GlcNAc(b1-3)Gal(b1-4)GlcNAc(b1-2)Man(a1-3)[Neu5Gc(a2-3)Gal(b1-4)GlcNAc(b1-3)Gal(b1-4)GlcNAc(b1-2)Man(a1-6)]Man(b1-4)GlcNAc(b1-4)GlcNAc
# Summary of the method: as §1
# [21] = target: Neu5Gc(a2-3)Gal(b1-4)[Fuc(a1-3)]GlcNAc
# Summary of the method: as §1
# [22] = target: Neu5Gc(a2-6)Gal(b1-4)GlcNAc
# Summary of the method: as §1
# Neu5Gc(a2-6)GalNAc = target: Neu5Gc(a2-6)GalNAc
# Summary of the method: as §1
# [23] = target: Neu5Gc(a2-8)Neu5Ac(a2-3)Gal(b1-4)GlcNAc
# Summary of the method: as §1
# [24] = target: Neu5Gc(a2-8)Neu5Gc(a2-3)Gal(b1-4)GlcNAc
# Summary of the method: as §1
# [25] = target: Neu5Gc(a2-8)Neu5Gc(a2-3)Gal(b1-4)GlcNAc(b1-3)Gal(b1-4)GlcNAc
# Summary of the method: as §1
# [26] = target: Neu5Gc(a2-8)Neu5Gc(a2-6)Gal(b1-4)GlcNAc
# Summary of the method: as §1
# [27] = target: Neu5Gc(b2-6)Gal(b1-4)GlcNAc
# Summary of the method: as §1
binder,measurement,setting,value
B1,glycan array binding signal (z-score),Neu5Ac(a2-8)Neu5Ac,-1.61
same,glycan array binding signal (z-score),[1],0.293
same,glycan array binding signal (z-score),[2],0.903
same,glycan array binding signal (z-score),[3],-0.002
same,glycan array binding signal (z-score),[4],0.215
same,glycan array binding signal (z-score),[5],0.155
same,glycan array binding signal (z-score),[6],0.258
same,glycan array binding signal (z-score),[7],-0.353
same,glycan array binding signal (z-score),[8],0.938
same,glycan array binding signal (z-score),[9],-0.192
same,glycan array binding signal (z-score),[10],-0.549
same,glycan array binding signal (z-score),[11],-0.294
same,glycan array binding signal (z-score),[12],-1.18
same,glycan array binding signal (z-score),[13],0.577
same,glycan array binding signal (z-score),Neu5Ac(b2-6)GalNAc,-1.22
same,glycan array binding signal (z-score),[14],0.027
same,glycan array binding signal (z-score),[15],0.236
same,glycan array binding signal (z-score),[16],0.123
same,glycan array binding signal (z-score),[17],-0.638
same,glycan array binding signal (z-score),[18],0.751
same,glycan array binding signal (z-score),Neu5Gc(a2-3)Gal(b1-4)Glc,0.206
same,glycan array binding signal (z-score),[19],-1.29
same,glycan array binding signal (z-score),[20],-1.53
same,glycan array binding signal (z-score),[21],1.96
same,glycan array binding signal (z-score),[22],-0.165
same,glycan array binding signal (z-score),Neu5Gc(a2-6)GalNAc,-0.735
same,glycan array binding signal (z-score),[23],-0.611
same,glycan array binding signal (z-score),[24],-1.27
same,glycan array binding signal (z-score),[25],-1.35
same,glycan array binding signal (z-score),[26],-0.091
same,glycan array binding signal (z-score),[27],-0.254

# 6 entries from above, tab-delimited:
binder	measurement	setting	value
B1	glycan array binding signal (z-score)	[6]	0.258
same	glycan array binding signal (z-score)	[11]	-0.294
same	glycan array binding signal (z-score)	[13]	0.577
same	glycan array binding signal (z-score)	[14]	0.027
same	glycan array binding signal (z-score)	[23]	-0.611
same	glycan array binding signal (z-score)	[27]	-0.254
